Source: the supplement of paper PMC6411743
± gives the standard deviation of the averaged measurements. Only a part is listed here, and it is no random draw. Most values lie at the level of the controls, where differences are scatter.

Amino acid sequences for entries named in this document (tags omitted). A change or cut given only in a name is not applied to a line headed by its entry.
UniProt Q9H2H8: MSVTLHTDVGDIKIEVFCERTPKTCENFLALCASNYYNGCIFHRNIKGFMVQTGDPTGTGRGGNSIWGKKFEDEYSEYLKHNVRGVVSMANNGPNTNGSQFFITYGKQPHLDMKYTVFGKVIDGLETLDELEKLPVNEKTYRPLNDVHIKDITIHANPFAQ
UniProt Q9BZK7: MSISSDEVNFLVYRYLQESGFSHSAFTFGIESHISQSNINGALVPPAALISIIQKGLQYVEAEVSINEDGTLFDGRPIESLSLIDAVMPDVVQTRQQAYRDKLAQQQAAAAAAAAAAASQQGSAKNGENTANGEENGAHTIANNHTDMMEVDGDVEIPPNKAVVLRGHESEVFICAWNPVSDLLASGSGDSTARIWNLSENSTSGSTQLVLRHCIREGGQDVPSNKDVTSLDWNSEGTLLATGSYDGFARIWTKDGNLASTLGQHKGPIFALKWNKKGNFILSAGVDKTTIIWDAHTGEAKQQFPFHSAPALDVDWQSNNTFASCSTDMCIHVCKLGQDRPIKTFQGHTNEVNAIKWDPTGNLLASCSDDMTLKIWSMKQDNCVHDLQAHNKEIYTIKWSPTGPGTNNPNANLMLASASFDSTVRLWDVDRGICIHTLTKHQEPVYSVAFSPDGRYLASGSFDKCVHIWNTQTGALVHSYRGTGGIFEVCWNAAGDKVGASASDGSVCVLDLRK
UniProt Q9H334: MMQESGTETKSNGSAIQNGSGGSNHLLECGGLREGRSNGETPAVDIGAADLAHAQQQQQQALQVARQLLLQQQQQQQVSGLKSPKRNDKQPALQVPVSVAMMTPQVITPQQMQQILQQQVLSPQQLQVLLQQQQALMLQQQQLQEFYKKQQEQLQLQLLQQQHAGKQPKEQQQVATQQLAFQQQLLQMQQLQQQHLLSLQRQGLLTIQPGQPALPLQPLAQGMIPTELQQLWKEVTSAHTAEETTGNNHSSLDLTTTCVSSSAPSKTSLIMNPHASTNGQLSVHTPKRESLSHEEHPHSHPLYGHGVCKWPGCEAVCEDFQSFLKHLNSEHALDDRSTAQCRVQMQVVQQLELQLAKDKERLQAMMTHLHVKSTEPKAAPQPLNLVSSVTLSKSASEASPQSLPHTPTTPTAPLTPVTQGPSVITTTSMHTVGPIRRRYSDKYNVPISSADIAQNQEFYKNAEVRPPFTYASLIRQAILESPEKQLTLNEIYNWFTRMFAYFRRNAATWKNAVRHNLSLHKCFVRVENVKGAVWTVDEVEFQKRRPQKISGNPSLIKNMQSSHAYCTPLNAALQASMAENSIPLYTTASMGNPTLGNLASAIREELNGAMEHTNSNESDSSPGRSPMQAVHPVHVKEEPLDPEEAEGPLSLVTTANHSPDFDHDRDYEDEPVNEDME
UniProt Q9NPD3, whole entry: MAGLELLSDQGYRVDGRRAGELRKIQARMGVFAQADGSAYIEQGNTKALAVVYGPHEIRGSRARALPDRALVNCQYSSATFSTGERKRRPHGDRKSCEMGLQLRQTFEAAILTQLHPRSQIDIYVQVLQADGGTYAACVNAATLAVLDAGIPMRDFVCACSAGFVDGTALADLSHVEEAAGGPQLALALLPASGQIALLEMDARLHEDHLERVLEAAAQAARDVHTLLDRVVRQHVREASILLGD
UniProt Q9H3S7: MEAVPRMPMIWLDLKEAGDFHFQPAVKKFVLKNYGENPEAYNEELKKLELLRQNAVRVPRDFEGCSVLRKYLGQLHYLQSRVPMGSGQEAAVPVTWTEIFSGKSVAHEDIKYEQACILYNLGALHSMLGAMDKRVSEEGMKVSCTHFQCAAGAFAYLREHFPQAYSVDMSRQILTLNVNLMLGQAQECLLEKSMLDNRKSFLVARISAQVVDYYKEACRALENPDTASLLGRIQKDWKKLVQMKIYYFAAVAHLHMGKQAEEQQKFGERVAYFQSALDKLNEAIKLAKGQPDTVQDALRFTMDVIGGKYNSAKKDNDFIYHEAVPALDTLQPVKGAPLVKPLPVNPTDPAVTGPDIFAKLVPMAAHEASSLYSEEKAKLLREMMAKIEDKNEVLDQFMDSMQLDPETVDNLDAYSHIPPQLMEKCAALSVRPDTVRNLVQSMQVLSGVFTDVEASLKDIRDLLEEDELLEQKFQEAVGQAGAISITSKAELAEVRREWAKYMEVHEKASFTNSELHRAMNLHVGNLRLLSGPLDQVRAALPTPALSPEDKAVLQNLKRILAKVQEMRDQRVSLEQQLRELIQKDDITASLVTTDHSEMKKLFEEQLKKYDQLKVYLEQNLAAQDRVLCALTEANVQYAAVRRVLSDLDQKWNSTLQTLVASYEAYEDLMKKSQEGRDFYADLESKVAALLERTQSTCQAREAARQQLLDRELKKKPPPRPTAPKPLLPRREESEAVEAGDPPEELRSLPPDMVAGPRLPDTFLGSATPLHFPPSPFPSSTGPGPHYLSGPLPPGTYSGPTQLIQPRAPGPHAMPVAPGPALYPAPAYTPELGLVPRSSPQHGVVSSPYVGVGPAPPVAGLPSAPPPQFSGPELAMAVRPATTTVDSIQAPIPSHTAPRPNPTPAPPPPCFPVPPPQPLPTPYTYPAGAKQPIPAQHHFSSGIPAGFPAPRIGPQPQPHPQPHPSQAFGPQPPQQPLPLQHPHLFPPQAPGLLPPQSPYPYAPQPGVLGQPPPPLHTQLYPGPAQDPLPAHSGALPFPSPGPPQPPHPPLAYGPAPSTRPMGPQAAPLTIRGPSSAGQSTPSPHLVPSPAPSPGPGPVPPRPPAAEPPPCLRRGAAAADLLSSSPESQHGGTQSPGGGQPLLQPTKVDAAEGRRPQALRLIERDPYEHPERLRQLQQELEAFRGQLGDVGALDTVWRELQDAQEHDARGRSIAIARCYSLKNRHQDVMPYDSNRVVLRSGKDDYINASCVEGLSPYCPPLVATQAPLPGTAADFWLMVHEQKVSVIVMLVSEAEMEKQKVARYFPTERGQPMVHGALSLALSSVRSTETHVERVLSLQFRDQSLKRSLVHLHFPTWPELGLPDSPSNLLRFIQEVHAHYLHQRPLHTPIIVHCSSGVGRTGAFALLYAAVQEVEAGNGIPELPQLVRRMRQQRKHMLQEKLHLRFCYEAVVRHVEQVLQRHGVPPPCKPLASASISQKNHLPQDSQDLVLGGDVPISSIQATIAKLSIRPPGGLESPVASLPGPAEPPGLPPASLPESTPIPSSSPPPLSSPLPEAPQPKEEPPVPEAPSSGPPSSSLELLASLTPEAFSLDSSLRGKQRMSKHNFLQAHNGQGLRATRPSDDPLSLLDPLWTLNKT
UniProt Q9GZQ3, whole entry: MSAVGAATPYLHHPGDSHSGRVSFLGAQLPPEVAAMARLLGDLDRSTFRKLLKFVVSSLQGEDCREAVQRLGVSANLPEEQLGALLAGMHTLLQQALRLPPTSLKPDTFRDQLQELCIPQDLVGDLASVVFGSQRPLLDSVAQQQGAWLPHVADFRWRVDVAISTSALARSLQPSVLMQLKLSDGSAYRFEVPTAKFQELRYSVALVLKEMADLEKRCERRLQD
UniProt Q9H8M5: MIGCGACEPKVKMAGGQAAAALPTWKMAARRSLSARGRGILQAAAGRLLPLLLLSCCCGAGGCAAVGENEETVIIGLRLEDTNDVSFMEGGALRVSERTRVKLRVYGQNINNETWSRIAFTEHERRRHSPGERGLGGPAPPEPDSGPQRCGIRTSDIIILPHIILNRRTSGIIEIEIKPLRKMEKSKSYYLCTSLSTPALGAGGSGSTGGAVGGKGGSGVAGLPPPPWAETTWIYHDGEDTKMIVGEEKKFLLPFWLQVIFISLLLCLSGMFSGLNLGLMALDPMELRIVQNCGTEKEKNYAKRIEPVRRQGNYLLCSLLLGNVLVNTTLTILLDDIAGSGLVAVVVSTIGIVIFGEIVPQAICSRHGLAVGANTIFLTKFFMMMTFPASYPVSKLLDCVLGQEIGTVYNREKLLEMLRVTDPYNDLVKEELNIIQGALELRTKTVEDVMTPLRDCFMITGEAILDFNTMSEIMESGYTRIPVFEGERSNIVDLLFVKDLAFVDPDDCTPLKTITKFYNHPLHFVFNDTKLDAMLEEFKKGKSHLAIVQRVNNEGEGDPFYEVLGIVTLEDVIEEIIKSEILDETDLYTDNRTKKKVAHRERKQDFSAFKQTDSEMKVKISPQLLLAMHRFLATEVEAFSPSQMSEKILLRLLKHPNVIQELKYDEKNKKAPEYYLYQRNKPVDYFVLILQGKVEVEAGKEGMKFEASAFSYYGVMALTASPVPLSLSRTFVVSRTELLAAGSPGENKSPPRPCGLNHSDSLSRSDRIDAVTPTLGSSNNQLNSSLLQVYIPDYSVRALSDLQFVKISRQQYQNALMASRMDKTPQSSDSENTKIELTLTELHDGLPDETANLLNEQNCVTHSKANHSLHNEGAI
UniProt Q9HCJ0: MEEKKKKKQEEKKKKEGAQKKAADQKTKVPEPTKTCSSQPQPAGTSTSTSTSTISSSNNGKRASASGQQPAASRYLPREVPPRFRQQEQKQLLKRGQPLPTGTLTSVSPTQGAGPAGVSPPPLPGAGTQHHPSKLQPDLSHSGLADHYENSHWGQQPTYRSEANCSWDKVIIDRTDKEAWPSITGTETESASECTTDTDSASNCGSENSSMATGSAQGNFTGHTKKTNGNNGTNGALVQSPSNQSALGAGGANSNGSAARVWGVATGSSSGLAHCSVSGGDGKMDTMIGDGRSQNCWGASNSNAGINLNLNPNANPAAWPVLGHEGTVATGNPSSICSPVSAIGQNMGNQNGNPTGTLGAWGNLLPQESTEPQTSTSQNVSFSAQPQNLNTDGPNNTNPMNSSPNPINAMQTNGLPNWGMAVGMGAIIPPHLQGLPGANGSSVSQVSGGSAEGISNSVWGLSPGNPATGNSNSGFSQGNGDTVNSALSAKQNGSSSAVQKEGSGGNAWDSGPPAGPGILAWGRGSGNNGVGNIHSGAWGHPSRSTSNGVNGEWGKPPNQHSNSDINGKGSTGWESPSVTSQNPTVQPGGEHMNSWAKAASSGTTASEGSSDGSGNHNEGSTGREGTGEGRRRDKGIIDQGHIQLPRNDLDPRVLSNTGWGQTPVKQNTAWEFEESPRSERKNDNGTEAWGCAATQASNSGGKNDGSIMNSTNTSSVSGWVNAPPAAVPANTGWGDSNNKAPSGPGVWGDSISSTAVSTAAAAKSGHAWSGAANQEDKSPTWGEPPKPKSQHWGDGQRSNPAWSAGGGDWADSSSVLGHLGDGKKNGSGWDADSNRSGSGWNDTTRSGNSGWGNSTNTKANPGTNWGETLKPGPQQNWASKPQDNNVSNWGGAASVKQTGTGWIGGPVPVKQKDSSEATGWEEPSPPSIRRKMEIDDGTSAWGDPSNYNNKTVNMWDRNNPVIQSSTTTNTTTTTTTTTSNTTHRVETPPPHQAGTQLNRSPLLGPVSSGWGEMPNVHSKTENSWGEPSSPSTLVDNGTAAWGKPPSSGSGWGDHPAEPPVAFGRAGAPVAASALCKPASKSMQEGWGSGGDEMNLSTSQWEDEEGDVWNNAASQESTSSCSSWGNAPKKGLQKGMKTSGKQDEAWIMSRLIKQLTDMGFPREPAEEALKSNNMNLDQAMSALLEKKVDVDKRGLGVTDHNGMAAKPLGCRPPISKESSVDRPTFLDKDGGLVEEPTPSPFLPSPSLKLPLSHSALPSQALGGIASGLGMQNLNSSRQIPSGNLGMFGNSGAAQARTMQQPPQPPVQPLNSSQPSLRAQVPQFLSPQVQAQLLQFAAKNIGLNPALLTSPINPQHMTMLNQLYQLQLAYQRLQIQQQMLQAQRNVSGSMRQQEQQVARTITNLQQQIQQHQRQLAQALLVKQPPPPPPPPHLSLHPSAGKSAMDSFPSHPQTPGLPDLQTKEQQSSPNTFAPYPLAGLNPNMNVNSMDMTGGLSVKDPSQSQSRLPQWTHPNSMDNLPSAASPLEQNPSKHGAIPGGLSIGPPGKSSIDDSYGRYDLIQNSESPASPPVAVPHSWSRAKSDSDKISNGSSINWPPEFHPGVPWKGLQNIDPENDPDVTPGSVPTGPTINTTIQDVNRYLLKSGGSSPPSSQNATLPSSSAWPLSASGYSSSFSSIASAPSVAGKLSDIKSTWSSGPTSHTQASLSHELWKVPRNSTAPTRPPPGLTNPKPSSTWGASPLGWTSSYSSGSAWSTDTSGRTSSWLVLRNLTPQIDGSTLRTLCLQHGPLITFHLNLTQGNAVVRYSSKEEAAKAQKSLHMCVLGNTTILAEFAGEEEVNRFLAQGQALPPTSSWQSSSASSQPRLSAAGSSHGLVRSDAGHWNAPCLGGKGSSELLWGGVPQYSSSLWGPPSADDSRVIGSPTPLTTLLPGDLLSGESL
UniProt Q9H1E3: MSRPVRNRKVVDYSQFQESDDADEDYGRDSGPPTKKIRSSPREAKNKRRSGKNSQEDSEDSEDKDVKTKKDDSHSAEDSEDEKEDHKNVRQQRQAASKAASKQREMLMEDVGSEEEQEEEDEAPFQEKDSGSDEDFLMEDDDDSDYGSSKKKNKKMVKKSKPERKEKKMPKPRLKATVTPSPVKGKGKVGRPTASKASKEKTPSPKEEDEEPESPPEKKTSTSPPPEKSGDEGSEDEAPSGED
UniProt Q9BZL1: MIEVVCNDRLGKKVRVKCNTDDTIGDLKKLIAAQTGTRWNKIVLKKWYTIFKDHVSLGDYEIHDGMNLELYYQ

Compound: Nc1ncnc2c1ncn2[C@@H]1O[C@H](COP(=O)(O)OP(=O)(O)NP(=O)(O)O)[C@@H](O)[C@H]1O [adenylyl imidodiphosphate]
Assay: NP40-soluble protein abundance relative to vehicle (solubility fold change) (ratio); higher = more soluble protein in presence of AMP-PNP
Summary of the method: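 Across three independent experiments, values are fold changes against the detergent-processed vehicle for each replicate, based on vsn-normalised intensities. The samples were Jurkat crude lysate treated with eight concentrations (0.1 to 10 mM) for 10 min at room temperature and then 3 min at 37 °C. Lysate was solubilised with 0.8% NP40 and benzonase, ultracentrifuged, and the supernatant analysed by TMT-labelled LC-MS/MS.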

Target	NP40-soluble protein abundance (concentration: 0.1mM)	NP40-soluble protein abundance (concentration: 0.5mM)
UniProt Q9H2F5-2|Q9H2F5 and related entries	0.999 ± 0.013	0.9449 ± 0.0068
UniProt Q9H2H8 and related entries	1.01 ± 0.049	1 ± 0.044
DNTTIP1 (UniProt Q9H147)	0.998 ± 0.03	1.01 ± 0.057
EHD1 (UniProt Q9H4M9)	0.9973 ± 0.0045	0.962 ± 0.049
UniProt Q9H4A5-2|Q5T5I6 and related entries	1.02 ± 0.034	1.011 ± 0.006
ANKZF1 (UniProt Q9H8Y5)	0.999 ± 0.041	0.998 ± 0.042
UniProt Q9H4A4 and related entries	1.02 ± 0.039	1.03 ± 0.048
WDR55 (UniProt Q9H6Y2)	1.05 ± 0.015	1.01 ± 0.04
DHX33 (UniProt Q9H6R0)	1.02 ± 0.078	0.995 ± 0.025
MRPL44 (UniProt Q9H9J2)	1.02 ± 0.034	1.01 ± 0.045
UniProt Q9BZF2	0.9981 ± 0.0092	1 ± 0.012
UniProt Q9HBK9 and related entries	0.989 ± 0.021	0.985 ± 0.081
UniProt Q9H0F7 and related entries	1.06 ± 0.056	1.05 ± 0.083
UniProt Q9NPI1 and related entries	1.06 ± 0.014	1.06 ± 0.075
UniProt Q9NP80 and related entries	0.9861 ± 0.0041	0.9695 ± 0.0051
SUDS3 (UniProt Q9H7L9)	0.956 ± 0.018	0.985 ± 0.057
SPC25 (UniProt Q9HBM1)	0.994 ± 0.031	0.999 ± 0.059
ZNF407 (UniProt Q9C0G0)	0.983 ± 0.033	0.988 ± 0.024
FN3KRP (UniProt Q9HA64)	1.01 ± 0.011	1 ± 0.047
MOV10 (UniProt Q9HCE1)	1.05 ± 0.025	1.02 ± 0.091
UniProt Q9H4L7 and related entries	0.9931 ± 0.0058	0.98 ± 0.033
UniProt Q9BZK7 and related entries	1.03 ± 0.015	1.01 ± 0.049
POLR3F (UniProt Q9H1D9)	0.972 ± 0.015	0.981 ± 0.032
DYNLRB1 (UniProt Q9NP97)	1.02 ± 0.031	1.06 ± 0.084
LSG1 (UniProt Q9H089)	0.983 ± 0.021	0.945 ± 0.043

Target	NP40-soluble protein abundance (concentration: 0.1mM)	NP40-soluble protein abundance (concentration: 0.5mM)
UniProt Q9H334 and related entries	0.947 ± 0.024	1.016 ± 0.0046
CPVL (UniProt Q9H3G5)	0.979 ± 0.04	0.973 ± 0.051
UniProt Q9H0V9 and related entries	1.02 ± 0.051	1 ± 0.073
EXOSC4 (UniProt Q9NPD3)	1.04 ± 0.028	1.01 ± 0.074
GAN (UniProt Q9H2C0)	1.01 ± 0.047	1 ± 0.037
NCOA5 (UniProt Q9HCD5)	0.992 ± 0.053	1.06 ± 0.055
GTPBP4 (UniProt Q9BZE4)	1.03 ± 0.018	1.02 ± 0.048
FAM117A (UniProt Q9C073)	1.02 ± 0.04	1.01 ± 0.016
KLC2 (UniProt Q9H0B6)	1.02 ± 0.036	1.01 ± 0.034
UniProt Q9C0D5 and related entries	0.934 ± 0.014	0.9621 ± 0.0076
UniProt Q9H165 and related entries	0.9936 ± 0.0057	0.998 ± 0.019
UniProt Q9GZM8 and related entries	1.01 ± 0.036	1.01 ± 0.03
PPCS (UniProt Q9HAB8)	1.01 ± 0.017	1.02 ± 0.015
UniProt Q9H832 and related entries	1.01 ± 0.038	0.976 ± 0.026
CCDC86 (UniProt Q9H6F5)	1.05 ± 0.026	1.01 ± 0.026
UniProt Q9H8Y8 and related entries	0.966 ± 0.031	1.01 ± 0.047
UniProt Q9HD26 and related entries	0.959 ± 0.014	0.951 ± 0.024
UniProt Q9H668	1.01 ± 0.027	0.989 ± 0.015
VPS16 (UniProt Q9H269)	1.04 ± 0.022	0.989 ± 0.057
JPH1 (UniProt Q9HDC5)	0.997 ± 0.033	0.996 ± 0.041
MRPL46 (UniProt Q9H2W6)	1.01 ± 0.031	1.02 ± 0.025
PTPN23 (UniProt Q9H3S7)	1.01 ± 0.018	1.01 ± 0.028
UniProt Q9H2G9 and related entries	1.01 ± 0.025	0.952 ± 0.015
UniProt Q9C037 and related entries	0.995 ± 0.013	0.967 ± 0.035
PELI2 (UniProt Q9HAT8)	0.988 ± 0.017	0.993 ± 0.031

Looked up above:
Entry of CCDC86 (UniProt Q9H6F5) under NP40-soluble protein abundance (concentration: 0.5mM): 1.01 ± 0.026
Entry of UniProt Q9BZF2 under NP40-soluble protein abundance (concentration: 0.1mM): 0.9981 ± 0.0092

Going on with the list.

Target	NP40-soluble protein abundance (concentration: 0.1mM)	NP40-soluble protein abundance (concentration: 0.5mM)
UniProt Q9H6A9 and related entries	0.986 ± 0.032	1.01 ± 0.046
UniProt Q9H074 and related entries	1.06 ± 0.079	0.961 ± 0.023
UniProt Q9HCJ3 and related entries	0.9845 ± 0.0035	0.969 ± 0.021
UniProt Q9H8K7	0.997 ± 0.036	0.991 ± 0.034
UniProt Q9H993	1.01 ± 0.037	1.03 ± 0.019
UniProt Q9HD33 and related entries	1.06 ± 0.038	1.03 ± 0.057
CUEDC2 (UniProt Q9H467)	0.977 ± 0.043	1.03 ± 0.075
UniProt Q9H425 and related entries	0.992 ± 0.024	1.03 ± 0.043
CARS2 (UniProt Q9HA77)	1 ± 0.051	0.935 ± 0.074
UniProt Q9GZQ3 and related entries	1.01 ± 0.05	1.03 ± 0.093
UniProt Q9GZU8	0.954 ± 0.047	0.978 ± 0.07
XRN2 (UniProt Q9H0D6)	0.982 ± 0.036	0.999 ± 0.032
ACTR5 (UniProt Q9H9F9)	1.01 ± 0.059	1.04 ± 0.068
POFUT1 (UniProt Q9H488)	0.996 ± 0.054	0.978 ± 0.024
UniProt Q9BZL4-4|Q9BZL4	1.03 ± 0.014	0.994 ± 0.021
UniProt Q9NPG3 and related entries	1.01 ± 0.025	1.01 ± 0.023
UniProt Q9H7Z6	1.03 ± 0.035	1.02 ± 0.043
UniProt Q9HBE1 and related entries	1.03 ± 0.044	1.004 ± 0.0033
UniProt Q9H974 and related entries	1.02 ± 0.032	0.997 ± 0.018
KATNBL1 (UniProt Q9H079)	0.993 ± 0.013	1.01 ± 0.025
UniProt Q9H8M5 and related entries	0.958 ± 0.028	0.986 ± 0.063
UniProt Q9H019 and related entries	1.03 ± 0.05	0.992 ± 0.058
UniProt Q9H0P0 and related entries	1 ± 0.018	0.992 ± 0.033
SMYD3 (UniProt Q9H7B4)	0.987 ± 0.07	0.933 ± 0.06
RAB3GAP2 (UniProt Q9H2M9)	1.02 ± 0.017	0.986 ± 0.037

Single records (already shown). Values in the order: NP40-soluble protein abundance (concentration: 0.1mM)	NP40-soluble protein abundance (concentration: 0.5mM)
UniProt Q9H425 and related entries in the list: 0.992 ± 0.024	1.03 ± 0.043
UniProt Q9H993 in the list: 1.01 ± 0.037	1.03 ± 0.019
RAB3GAP2 (UniProt Q9H2M9) in the list: 1.02 ± 0.017	0.986 ± 0.037

Next part.

Target	NP40-soluble protein abundance (concentration: 0.1mM)	NP40-soluble protein abundance (concentration: 0.5mM)
CDT1 (UniProt Q9H211)	1.04 ± 0.035	1.03 ± 0.068
ISCU (UniProt Q9H1K1)	0.981 ± 0.041	0.997 ± 0.056
TM9SF3 (UniProt Q9HD45)	1.02 ± 0.049	1.04 ± 0.095
TFB2M (UniProt Q9H5Q4)	1.01 ± 0.033	0.993 ± 0.036
PUS7L (UniProt Q9H0K6)	1 ± 0.047	0.987 ± 0.014
UniProt Q9GZY4	0.964 ± 0.012	0.986 ± 0.038
PLEKHA1 (UniProt Q9HB21)	0.985 ± 0.036	0.991 ± 0.022
UniProt Q9H5X1	1.004 ± 0.01	1 ± 0.032
UniProt Q9H773 and related entries	1.017 ± 0.002	1.05 ± 0.026
PREB (UniProt Q9HCU5)	1.01 ± 0.015	1 ± 0.018
UniProt Q9HCJ0 and related entries	0.9914 ± 0.0092	1.018 ± 0.0076
NUCKS1 (UniProt Q9H1E3)	0.946 ± 0.035	1 ± 0.019
UniProt Q9H7Z3	1.01 ± 0.044	1.02 ± 0.058
TNKS1BP1 (UniProt Q9C0C2)	0.9947 ± 0.0071	0.9568 ± 0.0095
UniProt Q9GZR5	0.952 ± 0.059	0.968 ± 0.012
PARVG (UniProt Q9HBI0)	0.9763 ± 0.0097	0.93 ± 0.0096
MED20 (UniProt Q9H944)	0.987 ± 0.034	1.01 ± 0.044
UniProt Q9HAJ7 and related entries	1.06 ± 0.021	0.949 ± 0.016
UniProt Q9BZL1	1.01 ± 0.049	0.996 ± 0.021
UniProt Q9H098 and related entries	0.979 ± 0.07	0.954 ± 0.087
TM6SF1 (UniProt Q9BZW5)	1.008 ± 0.0042	0.964 ± 0.061
RAB33B (UniProt Q9H082)	1.02 ± 0.044	1.04 ± 0.033
